Source: patent US20060252670A1, “Method of reducing drug-induced adverse side effects in a patient” (Intercept Pharmaceuticals Inc., priority 2004, published 2006)

Test system: liver fibrosis induced by porcine serum
Assay: Liver fibrosis induced by 8-week porcine serum administration to rats: 6-ECDCA, rosiglitazone and combination
Format: in vivo, rat
Settings: 8 weeks, mean ± SE
Method: To investigate whether 6-ECDCA was effective in regulating PPARγ expression, porcine serum-administered rats (6-8 each group) were randomized to receive 1 and 3 mg/kg 6-ECDCA via gavage 5 times a week. Control rats were administered 3% carboxy-methyl cellulose (CMC) by gavage. At the end of the study, rats were sacrificed under anaesthesia with sodium pentobarbital (50 mg/kg, i.p.) and terminally bled via cardiac puncture. The liver was removed for examination and blood samples were taken.
Groups and duration of treatment are described in Table 1 below. Animals were followed for 8 weeks.
Collagen surface density was quantified using a computerized image analysis system (Image Acquisition System Ver. 005, Delta Sistemi, Rome, Italy) (see Fiorucci et al., supra). Hepatic and urinary content of hydroxyproline were determined by HPLC (LC Varian Prostar HPLC, Varian, Rome, Italy) as described in Fiorucci et al. (supra). The ANOVA followed by Dunnett or Bonferroni correction for multiple comparison were applied when appropriate during statistical analysis. EC50 were calculated using Prism III (Graphpad Software. Inc., San Diego, Calif.).

Question: Which results are given for `CC[C@H]1[C@@H](O)[C@@H]2[C@H](CC[C@]3(C)[C@@H]([C@H](C)CCC(=O)O)CC[C@@H]23)[C@@]2(C)CC[C@@H](O)C[C@@H]12` [6-ECDCA]?
Answer: Final b.w. (oral 1 mg/kg (each drug)): 357.3 ± 9.8 g; Final b.w. (oral 3 mg/kg (each drug)): 352.4 ± 10.3 g
